In US5068222A (Imperial Chemical Industries PLC, priority 1987, dated 1991) one finds crude mass and isolated mass data, which are given here for 1 substance.

This series in a line: general procedure: Boc solid-phase peptide synthesis; methylbenzhydrylamine resin. Conditions: whole synthesis, scale 0.5 mmole.

Ac-GNHWAVGHL-NH2 gave a crude mass of 0.39 g and an isolated mass of 0.2 g.
